Measurements published in patent US20250295802A1, “HER3 ANTIBODY-DRUG CONJUGATE AND USE THEREOF” (DUALITY BIOLOGICS (SUZHOU) CO., LTD., priority 2022, published 2025).
Substitutions are numbered along the chain they refer to. No constants are given. Whether binding was seen depends on the method and setting. Some entries that bind do so weakly or less than the wild type. Blank lines part the entries; values can stand above or below the binder they belong to.

The chains behind the UniProt entries cited, without tags or fusion partners. Where a name states a change or a piece, a line headed by the entry shows the natural chain unless it says otherwise. A line that says so, or that is headed by a name, gives the form on record, which may keep a tag or linker. Residues count along the entry.
UniProt P21860, residues 20-643: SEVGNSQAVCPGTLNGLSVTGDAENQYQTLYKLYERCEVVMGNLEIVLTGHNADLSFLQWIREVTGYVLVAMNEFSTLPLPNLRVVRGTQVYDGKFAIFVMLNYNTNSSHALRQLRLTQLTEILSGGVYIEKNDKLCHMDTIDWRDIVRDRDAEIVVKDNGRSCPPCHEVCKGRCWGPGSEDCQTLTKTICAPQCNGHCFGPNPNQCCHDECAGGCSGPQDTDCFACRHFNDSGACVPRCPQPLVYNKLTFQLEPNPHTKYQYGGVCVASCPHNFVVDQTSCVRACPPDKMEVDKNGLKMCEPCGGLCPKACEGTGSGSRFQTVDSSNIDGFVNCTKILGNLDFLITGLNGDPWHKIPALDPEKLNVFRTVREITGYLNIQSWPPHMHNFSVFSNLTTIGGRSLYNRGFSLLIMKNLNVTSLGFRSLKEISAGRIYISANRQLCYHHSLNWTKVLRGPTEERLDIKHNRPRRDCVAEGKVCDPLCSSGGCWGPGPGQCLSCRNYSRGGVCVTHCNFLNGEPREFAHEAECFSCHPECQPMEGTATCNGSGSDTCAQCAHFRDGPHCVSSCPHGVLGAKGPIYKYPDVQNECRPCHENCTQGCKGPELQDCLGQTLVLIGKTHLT
cynomolgus monkey HER3 (G7PIG5, form named): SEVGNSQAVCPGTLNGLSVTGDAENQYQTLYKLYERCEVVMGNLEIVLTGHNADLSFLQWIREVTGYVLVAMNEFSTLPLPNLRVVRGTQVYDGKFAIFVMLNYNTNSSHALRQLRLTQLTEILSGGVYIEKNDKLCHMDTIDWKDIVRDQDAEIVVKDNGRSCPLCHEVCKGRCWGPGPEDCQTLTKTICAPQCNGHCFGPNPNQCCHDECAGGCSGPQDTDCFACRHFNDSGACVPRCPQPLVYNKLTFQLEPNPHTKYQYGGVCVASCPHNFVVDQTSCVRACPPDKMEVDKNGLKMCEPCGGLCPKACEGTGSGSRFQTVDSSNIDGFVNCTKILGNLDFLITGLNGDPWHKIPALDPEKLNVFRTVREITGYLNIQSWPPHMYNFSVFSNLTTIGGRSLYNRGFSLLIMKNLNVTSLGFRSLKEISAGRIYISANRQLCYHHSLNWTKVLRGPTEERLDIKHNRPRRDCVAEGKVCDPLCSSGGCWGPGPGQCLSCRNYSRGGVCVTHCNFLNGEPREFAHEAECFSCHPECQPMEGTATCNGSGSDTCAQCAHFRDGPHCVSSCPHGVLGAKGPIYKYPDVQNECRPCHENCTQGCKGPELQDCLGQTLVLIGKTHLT

Tests used:
human HER3-huFc [1] = target: T1, human HER3-huFc (human, UniProt P21860 20-643); assay: ELISA, chimeric antibody run in parallel with the freeze-thaw samples; antigen not named on the sheet, HER3 ELISA as in paragraph 289
T1 construct: also called huHER3; not shown: human Fc (huFc)

human HER3-huFc [2] = target: T1, human HER3-huFc; assay: ELISA, chimeric antibody run in parallel with the 40 °C stress samples; antigen not named on the sheet, HER3 ELISA as in paragraph 289
human HER3-huFc [3] = target: T1, human HER3-huFc; assay: ELISA, antigen coated
Method: ELISA assay: human HER2-ex-huFc, human HER3-huFc, and human EGFR-his were diluted to 2 μg/mL and 50 μL/well in a 96-well plate and incubated at 4° C. overnight. The plate was washed with 0.5×PBST, then incubated with 100 μL of a blocking buffer (PBS+3% BSA) at 37° C. for 2 h, and washed with 0.5×PBST. The 3F8 antibody was diluted with the blocking buffer in a 1:3 serial gradient, added at 50 μL/well, incubated at 37° C. for 40-50 min, and then washed with 0.5×PBST. […] Prior to assay, 50 μL of luminol buffer A+B was added to each well in a 1:1 mix.
EC50 of murine 3F8 binding to human HER3, HER2, and EGFR was analyzed using GraphPad Prism 6.0.

cynomolgus monkey HER3 [4] = target: T2, cynomolgus monkey HER3 (cynomolgus monkey, UniProt G7PIG5 20-643); assay: ELISA
human HER3-huFc [5] = target: T1, human HER3-huFc; assay: ELISA
cynomolgus monkey HER3 [6] = target: T2, cynomolgus monkey HER3; assay: ELISA on coated antigen, luminescence readout
human HER3-huFc [7] = target: T1, human HER3-huFc; assay: ELISA on coated antigen, luminescence readout
human HER3-huFc [8] = target: T1, human HER3-huFc; assay: ELISA after 0, 3, 5 freeze-thaw cycles; antigen not named on the sheet, HER3 ELISA as in paragraph 289
human HER3-huFc [9] = target: T1, human HER3-huFc; assay: ELISA after incubation at 40 °C for 0, 7, 14 days; antigen not named on the sheet, HER3 ELISA as in paragraph 289
human HER3-huFc [10] = target: T1, human HER3-huFc; assay: ELISA after stress tests
human HER3-huFc [11] = target: T1, human HER3-huFc; assay: ELISA after incubation at pH 3.5 for 0, 2, 4, 6 h; antigen not named on the sheet, HER3 ELISA as in paragraph 289

binding (human HER3-huFc [1]): binds
binding (human HER3-huFc [2]): binds
B1: chimeric 3F8 antibody (antibody, human IgG1, V domains shown)
VH: DVQLQESGPGLVKPSQSLSLTCSVTGYSITSAYYWNWIRQFPGDKLEWMGYISYDGRNNFNPSLKNRISITRDTSKNQFFLKLNSVTSGDTATYYCARDGDYDYFDYWGQGTTLTVSS
VL: DIQMTQTTSSLSASLGDRVTISCRASQDISNYLNWYQQKPDGTFKLLIYYTSILHSGVPSRFSGSGSGTDYSLTISNLEQEDIATYFCQQGDTLPPTFGAGTKLELK
notes: also called ch3F8; Chimeric antibody

binding (human HER3-huFc [3]): binds
binding (cynomolgus monkey HER3 [4]): binds
binding (human HER3-huFc [5]): binds
binding (cynomolgus monkey HER3 [6]): binds
binding (human HER3-huFc [7]): binds
B2: murine 3F8 antibody (antibody, V domains shown)
VH: B1 VH
VL: B1 VL
notes: Mouse hybridoma antibody, made by hybridoma or recombinantly; also called m3F8

binding (human HER3-huFc [8]): binds
binding (human HER3-huFc [9]): binds
binding (human HER3-huFc [10]): binds
binding (human HER3-huFc [11]): binds
B3: humanized 3F8 antibody hu3F8-2 (antibody, human IgG1, kappa, V domains shown)
VH: QVQLQESGPGLVKPSETLSLTCTVSGYSITSAYYWNWIRQPFGKGLEWMGYISYDGRNNFNPSLKNRVTISRDTSKNQFSLKLSSVTAADTAVYYCARDGDYDYFDYWGQGTTVTVSS
VL: DIQMTQSPSSLSASVGDRVTITCRASQDISNYLNWYQQKPGKAPKLLIYYTSILHSGVPSRFSGSGSGTDYTFTISSLQPEDIATYFCQQGDTLPPTFGGGTKLEIKR
notes: also called Clone 2; clone-2

binding (human HER3-huFc [8]): binds
binding (human HER3-huFc [9]): binds
binding (human HER3-huFc [10]): binds
binding (human HER3-huFc [11]): binds
B4: humanized 3F8 antibody hu3F8-1 (antibody, human IgG1, kappa, V domains shown)
VH: B3 VH with F42P, M49I, R72V
VL: B3 VL
notes: also called Clone 1; clone-1

binding (human HER3-huFc [8]): binds
binding (human HER3-huFc [9]): binds
binding (human HER3-huFc [10]): binds
binding (human HER3-huFc [11]): binds
B5: humanized 3F8 antibody hu3F8-3 (antibody, human IgG1, kappa, V domains shown)
VH: B3 VH with T69S, V93T
VL: B3 VL
notes: also called Clone 3; clone-3
